Publication PMC10163288
Some of the results follow.

B1: il2ra_site2_3nfp_sap_23_mot_HHH_b1_03600_000000077_0001_18_34_H_._HHH_b2_04836_0001_0000300027_0000001_0_0001 (protein)
chain: SSSSDIEEAAHLLRQFAEALKDPELQEEVEELTEEAEKEGDERLLEEAAFRVYRVARKRNSSSSS
B2: il2ra_site2_2erj_sap_12_mot_e3be008b04150b5953e9f850c9479793_0001_000000253_0001_15_29_H_._HHH_b2_03566_0001_0000200003_0000001_1_0001 (protein)
chain: SSSSDEKLRRLYELAVRLTRLVAEGDEEEFEKVLEEAKELAQELDSENAKEILENLEKLLSSSSS
B3: il2ra_site2_3nfp_normal_mot_HHH_b1_01086_000000225_0001_20_36_H_._HHH_b1_06364_af2_0001_0000200004_0000001_0 (protein)
chain: SSSSDEEEIEQLIEEVKELLKRGNPEEAQRVLQEALHLAYELGNFRLFAELADLSVLAYELSSSS
B4: il2ra_site1_1z92_normal_mot_818a9d7520499bc24e5218c3ec3bba43_0001_000000166_0001_34_49_H_._66959ead3e6c57cb3ef8243f3eb758e0_0001_1_af2_0001_0000500046_0000001_0 … (protein)
chain: STAEEDLREAVEKNDEELLREFIELLLKDAGDPKLVELLLRILVRRLGLPPEVLEELRELLEELT
B5: il2ra_site2_2erj_normal_mot_HHH_b1_06554_000000001_0001_44_57_H_._HHH_b1_02402_0001_0000200030_0000001_0_af2pred_0001_1_af2pred_swapped (protein)
chain: SSSSSLERIFELAHEASELLAKGDDEEARRVVEEAEELARESDSKSAERALEFALKSIESLSSSS
B6: il2ra_site1_2b5i_normal_mot_HHH_b2_06557_000000121_0001_42_56_H_._HHH_b2_02809_0001_0000100007_0000001_0 (protein)
chain: SSSSSADEIAEEAHHEASRLWRNGNPEEAEKILEEAAELIRELNDERNLKQLEEYLRFLNSSSSS
B7: il2ra_site1_2b5i_sap_10_mot_HHH_b1_05489_000000003_0001_1_19_H_._HHH_b2_06282_af2_0001_0000500016_0000001_0_0001_af2pred_dldesign_0_af2pred (protein)
chain: SSSSSSSSNWKQLLLRADAAYKAGDVEELERLLREAEAAGYTKVARIIREAIEALLESSSSSSSS
B8: il2ra_site2_3nfp_normal_mot_HHH_b1_02962_000000041_0001_43_56_H_._HHH_b2_04661_af2_0001_0000300012_0000001_0 (protein)
chain: SSSSDEERLRKLLKELEELAEEGDEEEFRELVRELSQLIFELGDSEAFFILAELLFRFEQKSSSS
B9: il2ra_site1_2b5i_sap_17_mot_HHH_b2_03242_af2_000000120_0001_1_19_H_._8d84ef60cc1e3adad24f3638b402ac36_0001_1_af2_0001_0000300012_0000001_0_0001 (protein)
chain: SSSSDIEERIDELFREASRLWREGNPEEARELLEEALELAEEANDPNTARDIERFLRLKGSSSSS
B10: il2ra_site1_1z92_sap_14_mot_22aa8d8ad8dce7f663ea8fa348a52261_0001_000000005_0001_37_51_H_._HEEHE_1847_af2_0002_0000300017_0000001_0_0001_af2pred_dldesign_0_af2p … (protein)
chain: SLEELLERLAKLLGVDPSTVKSMLDALTKLTGDRRKAVRNFLTFLKKSGLLTPEVEALLRRIEEE
B11: il2ra_site1_2b5i_sap_20_mot_24158596531fe56b9a92a73954708cce_0001_af2_000000247_0001_36_50_H_._a237db91e5dae9a764afea8a79d812a9_0001_0001_0000200022_0000001_0_0 … (protein)
chain: SEEELLEELAKLAGVPPEVIERAVEVAAKQLEDPPEEALEALRKDLEKLGDPRHVKLAVELLARK
B12: il2ra_site2_3nfp_normal_mot_HHH_b1_06797_000000164_0001_24_40_H_._HHH_b1_00354_0001_0000100007_0000001_0 (protein)
chain: SSSSSSKAEEYIRAVIELAKRIEDPEVARRSLRLAIELAHLIRNEELLEELEELLEQLESSSSSS
B13: il2ra_site1_3nfp_normal_mot_1cd86ef9f1587ae5d14d35bbbd8e7f1d_0001_1_000000087_0001_34_49_H_._HHH_b1_04651_0001_0000700037_0000001_0_af2pred_0001_af2pred (protein)
chain: SSSSDIEEEVEELEEKARQLIEKGDSREFDKVLRRLQELARELDDPRIKEIAEELLRLAHSSSSS
B14: il2ra_site2_2erj_sap_10_mot_HHH_b1_04875_000000046_0001_21_38_H_._HHH_b2_00017_0001_0000400004_0000001_0_0001 (protein)
chain: SSSSDVEEEVEELLEQAEKAWREGDLHAVYRLAVEALHLASKNQDPELQRLVAEVFEKLQSSSSS
B15: il2ra_site2_2erj_sap_24_mot_ca9fcc9ace360711d783d1260e4fbff1_0001_1_af2_000000007_0001_15_32_H_._HHH_b1_06826_0001_0000200029_0000001_0_0001 (protein)
chain: DENAEELLKEALKLAPPEEVLRSRLEYLERFLGDPERAEEILKEVVKEVLNVPPEEARRLIEEAR
B16: il2ra_site1_1z92_normal_mot_HHH_b2_05038_af2_000000006_0001_39_52_H_._c788f694b6024b8d85290983deed1e3f_0001_0001_0000100008_0000001_0 (protein)
chain: SLEEKLKELLEELGVPPELIRILLQYIEFARASGLPPEEVLERVRELVERAGSEELSQALELLKK
B17: il2ra_site2_2erj_normal_mot_d90d487aea70c45ec8d535bcd4a5bcdf_0001_1_000000234_0001_37_51_H_._f36577d69a6146de1eed06bfb95d352c_0001_1_0001_0000300032_0000001_0 (protein)
chain: DIEEFIKEALRLAAEQGTLEEDVRLRLRYLEIFLGDPEEALRRLRELLEELGDPDAEKVLEELER
B18: il2ra_site2_3nfp_sap_19_mot_ems_3hC_936_0002_af2_000000049_0001_43_60_H_._76e6e8f7232a9e65eeaab5ff8ecb4c96_0001_0001_0000100003_0000001_0_0001 (protein)
chain: SSSSSKAEEYLRIALELAKEAREDGDPESARRILHIALAMAESQRDEEIEKEVERLLEEVSSSSS
B19: il2ra_site1_1z92_sap_8_mot_HHH_b2_05172_af2_000000284_0001_1_18_H_._HHH_b1_05687_af2_0001_0000100001_0000001_0_0001_af2pred_0001_af2pred (protein)
chain: SLEEELKELAEQLGIPPEEVELILEIAEKDSGDPRLARRFLAVIILAAVKKNDPRYVESLRDAAS
B20: il2ra_site1_1z92_sap_17_mot_HHH_b1_07624_af2_000000183_0001_1_21_H_._HHH_b2_00527_0001_0000100009_0000001_0_0001 (protein)
chain: SSSSNFAEFAREMARALFKLIEISGNPRARERLEMLLRDLEMLGNEEVIEEVEELIEQLRNSSSS
B21: il2ra_site2_2erj_sap_24_mot_HHH_b2_04375_af2_000000283_0001_22_38_H_._HHH_b2_05413_af2_0001_0000200004_0000001_0_0001 (protein)
chain: SSSSSEAYEEAARASLRALELFKRGNPEEAREVLEEALRLAEELNDEAAKRYLEFLEKDLDSSSS
B22: il2ra_site1_1z92_normal_mot_22370d59370c406a0c205a431f537cfa_0001_000000027_0001_1_14_H_._HHH_b1_00743_af2_0001_0000300005_0000001_0_af2pred_dldesign_0_af2pred (protein)
chain: SSSDDEEILRTMKEISRLYAAGRPAEAAAAAAALRARLTAAGETGAVADLDKYVAFVRARASSSS
B23: il2ra_site1_3nfp_sap_16_mot_22370d59370c406a0c205a431f537cfa_0001_af2_000000271_0001_52_65_H_._306e237eb68499aa2c78cb84ccc46c3c_0001_0001_0000100011_0000001_1_0 … (protein)
chain: SSSSREAELAEFAIRVVAKLQLELGLSEEQAQELLELAERLVRQGYSEEEIEEILEKLARELSSS
B24: il2ra_site2_3nfp_sap_11_mot_HHH_b2_00746_000000285_0001_20_36_H_._HHH_b1_04862_0001_0000300041_0000001_0_0001 (protein)
chain: SSSDREERIEELFEEVRELLERGDPTEATQLLLEMAELASKLDDPELARLVLELYKLARELYSSS

target: il2ra, P01589; experiment: yeast display titration

Apparent Kd, inactive:
B1 no binding seen, B2 no binding seen, B3 no binding seen, B4 no binding seen, B5 no binding seen, B6 no binding seen, B7 no binding seen, B8 no binding seen, B9 no binding seen, B10 no binding seen, B11 no binding seen, B12 no binding seen, B13 no binding seen, B14 no binding seen, B15 no binding seen, B16 no binding seen, B17 no binding seen, B18 no binding seen, B19 no binding seen, B20 no binding seen, B21 no binding seen, B22 no binding seen, B23 no binding seen, B24 no binding seen
